Article PMC4166665
No constants are given. Whether binding was seen depends on the method and setting. Binding seen in cells or lysates may run through a third protein. Some binding calls cover weakened binding; strength is not graded here.

Sequences of proteins named here, by UniProt entry; tags and fusion partners are left off. Residues count along the entry.
UniProt P08025, residues 49-118: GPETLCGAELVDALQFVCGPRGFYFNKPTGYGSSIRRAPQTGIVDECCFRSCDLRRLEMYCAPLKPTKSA
UniProt P15473, residues 28-292: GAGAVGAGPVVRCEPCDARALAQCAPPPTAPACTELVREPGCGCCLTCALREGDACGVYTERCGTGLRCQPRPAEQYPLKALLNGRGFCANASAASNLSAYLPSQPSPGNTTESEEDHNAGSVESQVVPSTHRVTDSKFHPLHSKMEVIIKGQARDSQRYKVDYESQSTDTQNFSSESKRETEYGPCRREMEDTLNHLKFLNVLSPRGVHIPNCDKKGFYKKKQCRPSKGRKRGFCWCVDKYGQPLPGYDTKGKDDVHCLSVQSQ
UniProt P24594, residues 20-271: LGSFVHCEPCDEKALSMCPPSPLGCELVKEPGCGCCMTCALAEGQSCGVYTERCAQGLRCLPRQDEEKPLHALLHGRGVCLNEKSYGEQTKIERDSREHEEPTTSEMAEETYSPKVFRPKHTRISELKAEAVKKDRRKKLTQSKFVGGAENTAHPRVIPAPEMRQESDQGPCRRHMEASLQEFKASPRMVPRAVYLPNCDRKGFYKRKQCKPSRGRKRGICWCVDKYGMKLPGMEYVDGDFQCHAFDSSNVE

Molecular target: Insulin-like Growth Factor 1 (rat (endogenous in plasma)) (UniProt P08025)
Assay: co-IP; 900 µg of albumin- and IgG-depleted rat plasma (control and 14-day hindlimb-unloaded rats), pre-cleared with protein G magnetic beads; IGF-1 antibody overnight, protein G magnetic beads 1h30 at room temperature, 4 washes with PBS 0.05% Tween; western blot for IGFBPs

| binding | Substance |
| --- | --- |
| binds | IGFBP3 (from UniProt P15473 28-292) |
| binds | IGFBP5 (from UniProt P24594 20-271) |
